Measured values taken from patent EP3823984A1.
No constants are given. Whether binding was seen depends on the method and setting. Some entries that bind do so weakly or less than the wild type.

Biological target: recombinant HER-2 (UniProt P04626)
Assay: flow cytometry of engineered T cells incubated with recombinant HER-2 (Fig. 4A)

B1: Anti-HER-2 DARPin CAR (protein, not shown: small tags and cut ends)
chain: MSRGSDLGKKLLEAARAGQDDEVRILMANGADVNAKDEYGLTPLYLATAHGHLEIVEVLLKNGADVNAVDAIGFTPLHLAAFIGHLEIAEVLLKHGADVNAQDKFGKTAFDISIGNGNEDLAEILQKLN
binding: binds
